# Primary screen of a compound library

Each number is a percent effect as filed.
The controls that fix the scale are not given in the record; negative values are as filed.
This is an unselected part of the compounds tested.
A dash means the value is not listed here; it may have been measured.

Mtb growth Cornell: 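Whole-cell assay for inhibitors of Mycobacterium tuberculosis growth, labelled Cornell in the record; the read-out is not stated. The concentration is filed as 10 mM, unlikely as a test dose, so the dose is not known. The record gives no direction; compounds strong in two other growth screens of this library score well above the rest, so higher reads as stronger inhibition. Of about 53,000 compounds tested this way, about 900 (1.7%) reached 50% or more in at least one test.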
Mtb heat-shock: 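Assay on Mycobacterium tuberculosis, filed only as a heat shock assay from Cornell; the read-out is not stated. The concentration is filed as 10 mM, unlikely as a test dose, so the dose is not known. Direction is inferred from retests: higher values go with stronger inhibition. Size under these conditions: about 69,000 compounds, about 930 of them at 50% or above in at least one test.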

structure,Mtb growth Cornell,Mtb heat-shock
CN(C)c1ccc(CC2COCCN(Cc3nccn3C)C2)nn1 (configuration not stated),-,-16.21%
CN1CCCC1c1ccnc(-c2ccccc2)n1 (configuration not stated),-7.451%,31.16%
[H][C@@]12COC[C@]1(COCC1CC1)CN(S(=O)(=O)c1cccc(F)c1)C2,0.8685%,-32.9%
Cc1nc(N2CCOCC2)nc2c1CCN(Cc1cccnc1)CC2.O=C(O)C(F)(F)F,26.93%,5.04%
O=C(NCc1ccco1)Nc1ccc2nc(N3CCOCC3)oc2c1,12.3%,18.42%
Cc1nnc(C(C)Nc2ccc(OCCc3ccccc3)nc2)o1 (configuration not stated),31.06%,6.807%
O=C(O)c1cn(CC2CCCN(c3nccc4occc34)C2)nn1 (configuration not stated),-,-13.3%
CC(C)(C)C(=O)CN1CCc2ccccc2NCCC1=O,-60%,-3.262%
CN1CC(NC(=O)CCCc2cc(Cl)sc2Cl)CCC1=O (configuration not stated),6.15%,-5.021%
Cc1cc(C)c(CNC(=O)N2CCCC2c2ccc(F)cc2)c(=O)[nH]1 (configuration not stated),-55.52%,-7.767%
O=C(O)c1ccc(-c2cscn2)cc1,-12.12%,2.506%
Cc1ncnc(N2CCN(C(=O)C3CC4(CCNCC4)CN3)CC2)c1C (configuration not stated),-10.72%,-40.28%
CC[C@@H](CO)NC(=O)c1cccc(CCC(C)(C)O)c1,-33.18%,2.257%
CC(C)c1nccc(CN2CCCC(O)(CN(C)C)CC2)n1 (configuration not stated),-48.22%,18.33%
CN(C)c1nc(NCCc2cnccn2)ncc1F,13.34%,-14.72%
NC(=O)c1cccc(-c2cnc(C3CCCNC3)cn2)c1 (configuration not stated),22.75%,-12.12%
Cc1nccnc1N1CCC2(CCCN(C3CCOCC3)C2=O)C1 (configuration not stated),2.456%,-2.013%
Cn1cnnc1C1CCCN(C(=O)NCc2ccccc2)C1 (configuration not stated),-13.66%,7.589%
CC(C)Nc1nc2c(cc1C(=O)O)CCN(Cc1ccsc1)CC2.O=C(O)C(F)(F)F.O=C(O)C(F)(F)F,10.21%,-14.42%
O=C(O)C(F)(F)F.O=C(O)C(F)(F)F.[H][C@@]12CCN(CC(=O)N(C)C)[C@@]1([H])CCN2Cc1cc(C)c(C)o1,-,2.299%
COCc1cc(CC2(NCc3ccccc3Cl)COC2)no1,12.94%,-29.75%
O=C(CSCC1CC1)N1CCCN(c2ccc(F)cc2)CC1,-,-20.86%
CN(CC(=O)N1CCCC1c1noc(C2CC2)n1)C1CC1 (configuration not stated),7.618%,0.7215%
CCc1nnc2n1CCN(C(=O)c1cc(Br)c[nH]1)C2,-48.89%,-22.17%
COc1ccc(C(=O)NC2CC2)c(OC2CCN(CC3CC3)CC2)c1,0.3202%,-28.81%
COc1cc2nc(C)sc2cc1NC(=O)CN(C)C(C)C,22.39%,14.75%
O=C(O)C(F)(F)F.[H][C@@]12COC[C@H](C(=O)N3CCCCO3)[C@]1([H])CN(Cc1cc(C)c(C)o1)C2,-31.43%,4.975%
COCCN1CCCC1c1ccnc(-c2ccccc2)n1 (configuration not stated),10.2%,20.75%
CN(Cc1ccc2c(c1)OCO2)C(=O)c1ccn(C)c(=O)c1,8.958%,0.2584%
COC1CCN(C(=O)CCn2cccn2)CC1,-,28.58%
Cc1cc(CN2CCN(C(=O)CCc3ccco3)CC2)on1,-,33.37%
COCc1nc2ncc3c(=O)n(-c4ccc(C(C)=O)cc4)ccc3n2n1,18.11%,11.88%
CCC(C)N(Cc1cc(C)n[nH]1)Cc1ccccc1Cl (configuration not stated),25.25%,19.09%
Cc1ccc(OC2(C(=O)O)CCN(C/C=C/c3ccco3)CC2)c(C)n1,-,12.46%
O=C(O)CSc1nnc(-c2ccn[nH]2)n1-c1ccccc1Cl,-5.864%,-2.164%
CC(C)c1nc(CN(C)C(=O)CNS(=O)(=O)c2cccs2)no1,-46.53%,-27.9%
Cc1ccc(NS(=O)(=O)c2cnn(-c3ccccc3)c2)c(C(=O)O)c1,55.25%,-0.01008%
Cc1cc(C(=O)N2CCS(=O)(=O)CC2)c(C)o1,12.48%,-3.666%
COc1ccccc1CNCc1nn(-c2ccccc2)c2c1CCC2,75.02%,-3.197%
CNC(=O)C1(CCCc2ccccn2)CN(Cc2nccn2C)C1,9.548%,4.253%
Cc1c(C(=O)O)sc2nc(Cc3ccccc3)nc(N)c12,-1.015%,0.9895%
CCC(CC)NC(=O)c1ccc2nnc(C3CCN(C(C)=O)C3)n2c1 (configuration not stated),-22.34%,-4.074%
CN(C)C(C(=O)NCc1cc(C(C)(C)C)n[nH]1)c1ccc(F)cc1 (configuration not stated),-6.092%,5.209%
COCC(O)CN1CCC(=O)N(CC=C(C)C)Cc2ccccc21 (configuration not stated),-1.382%,19.37%
CC(C)(C)S(=O)(=O)c1ccc(N2CCC(n3cccn3)CC2)cn1,5.167%,7.073%
COc1cccn(CC(=O)N2CCCC3(CCCO3)CC2)c1=O (configuration not stated),10.43%,17.03%
Cc1ccc(CCCC(=O)N2CCCC(CS(N)(=O)=O)C2)s1 (configuration not stated),6.764%,12.42%
CCN(Cc1ccccc1)C(=O)CN1CCCCC1Cn1cncn1 (configuration not stated),-,-3.31%
O=C(c1nc2sccn2c1-c1ncc[nH]1)N1CCCCC1,31.31%,1.454%

Some entries from above, unchanged:

structure	Mtb growth Cornell	Mtb heat-shock
Cc1ccc(OC2(C(=O)O)CCN(C/C=C/c3ccco3)CC2)c(C)n1	-	12.46%
CC(C)Nc1nc2c(cc1C(=O)O)CCN(Cc1ccsc1)CC2.O=C(O)C(F)(F)F.O=C(O)C(F)(F)F	10.21%	-14.42%
CN(C)c1nc(NCCc2cnccn2)ncc1F	13.34%	-14.72%
O=C(CSCC1CC1)N1CCCN(c2ccc(F)cc2)CC1	-	-20.86%
COc1ccc(C(=O)NC2CC2)c(OC2CCN(CC3CC3)CC2)c1	0.3202%	-28.81%

The values are deposited in ChEMBL (CHEMBL3988442, “University of Dundee, Small-Polar-MMV Screening Library” (2021)).